Laboratory results published in patent US20100130450A1, “Methods of Treating Fungal Infections” (NORTHEASTERN UNIVERSITY, priority 2007, published 2010).
Converted amounts (≈) assume the structure as drawn.

Tested on: C. albicans
Test: MIC
Type: cell-based, Candida albicans

**Q.** With C[C@@H]1[C@H](O)[C@@H](C)/C=C/C=C/C=C/C=C/C=C/C=C/C=C/[C@H](O[C@@H]2O[C@H](C)[C@@H](O)[C@H](N)[C@@H]2O)C[C@@H]2O[C@](O)(C[C@@H](O)C[C@@H](O)[C@H](O)CC[C@@H](O)C[C@@H](O)CC(=O)O[C@H]1C)C[C@H](O)[C@H]2C(=O)O [amphotericin B] as the molecule, how does the MIC read?
**A.** 1 µg/mL (≈ 1.08 µM)
